Data taken from PubChem BioAssay AID1259246 (Broad Institute, 2017).
Inconclusive results, whose numbers are uncertain, are shown with a selection of clear calls. Activity calls are given as the source filed them.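 The calls were made as follows: active = valid dose-response fit whose half-maximal growth-inhibiting concentration is at or below a set limit above the top tested dose; inconclusive = flat fit with effect between 30 and 70%, or poor fit; inactive = half-maximal concentration above a set limit.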

Assay: antibacterial activity against Clostridioides difficile – 10-point retest, dose response (AID 1259246)
Settings: Clostridioides difficile clinical isolate growth, OD600, 24 h; at 120 µM (top of the series) unless noted

SMILES | activity change, negative = inhibition
CO[C@H]1CN(C)C(=O)c2ccc(NC(=O)c3ccc(-c4ccccc4)cc3)cc2OC[C@@H](C)NC[C@@H]1C | inactive: 12.9% [at 60 µM]
CC(C)CC#Cc1ccc2c(c1)O[C@H](CN(C)Cc1ccc(F)cc1)[C@H](C)CN([C@@H](C)CO)S2(=O)=O | inconclusive: 103%
N#C[C@@H]1[C@@H](c2ccc(C#Cc3cccnc3)cc2)[C@@H](CO)N1C(=O)NC1CCCCC1 | inconclusive: -34.1% [at 160 µM]
C[C@H]1CN([C@@H](C)CO)S(=O)(=O)c2ccc(/C=C/c3ccccc3)cc2O[C@H]1CN(C)Cc1cccnc1 | inconclusive: 74.7%
CC(C)CC#Cc1ccc2c(c1)O[C@H](CN(C)Cc1ccc3c(c1)OCO3)[C@H](C)CN([C@H](C)CO)S2(=O)=O | inconclusive: 113%
C[C@H](CO)N1C[C@H](C)[C@H](CN(C)S(=O)(=O)c2ccc(C#N)cc2)Oc2ncc(C#Cc3ccc(C(F)(F)F)cc3)cc2C1=O | inconclusive: 56.2%
C[C@@H]1CCCCO[C@H](CN(C)C)[C@H](C)CN([C@H](C)CO)C(=O)c2cc(NC(=O)c3ccncc3)ccc2O1 | inactive: 45.3%
COc1cccc(NC(=O)N[C@H]2CC[C@H](CC(=O)Nc3ccc(-c4ccccc4)cc3)O[C@@H]2CO)c1 | inconclusive: 57.9%
COc1ccccc1S(=O)(=O)N[C@H]1C=C[C@@H](CC(=O)N2CCOCC2)O[C@@H]1CO | inconclusive: 62.6%
CC(C)CC#Cc1ccc2c(c1)O[C@H](CN(C)Cc1ccc3c(c1)OCO3)[C@@H](C)CN([C@H](C)CO)S2(=O)=O | inconclusive: 86.1%
C[C@H]1CN([C@@H](C)CO)C(=O)c2cccc(NC(=O)Nc3ccc(C(F)(F)F)cc3)c2O[C@@H]1CN(C)S(=O)(=O)c1ccc(Cl)cc1 | inconclusive: 70.1%
C[C@H](CO)N1C[C@H](C)[C@H](CN(C)Cc2ccccc2)Oc2ncc(-c3cc4ccccc4o3)cc2C1=O | inconclusive: 58.2%
COc1ccc(S(=O)(=O)N(C)C[C@H]2Oc3ccc(NC(=O)C4CC4)cc3CC(=O)N([C@H](C)CO)C[C@H]2C)cc1 | inactive: -2.76% [at 135 µM]
C[C@@H]1CN([C@H](C)CO)S(=O)(=O)c2ccc(C#CC3CCCCC3)cc2O[C@@H]1CN(C)Cc1cccnc1 | inactive: 20.4%
COc1ccc(S(=O)(=O)N(C)C[C@@H]2Oc3c(NC(=O)c4ccc(-c5nccs5)cc4)cccc3C(=O)N([C@@H](C)CO)C[C@H]2C)cc1 | inconclusive: 57.2%
COc1ccc(CN(C)C[C@H]2OCCCC[C@@H](C)Oc3ccc(NC(=O)Nc4ccc(F)cc4)cc3C(=O)N([C@@H](C)CO)C[C@@H]2C)cc1 | inconclusive: -44.8%
C[C@@H]1CN([C@@H](C)CO)C(=O)c2cccc(NC(=O)Nc3ccc(C(F)(F)F)cc3)c2O[C@H]1CN(C)CC1CC1 | inconclusive: 16.4%
C[C@@H]1CN([C@@H](C)CO)S(=O)(=O)c2ccc(/C=C/c3ccccc3)cc2O[C@H]1CN(C)C(=O)c1ccncc1 | inactive: 14.4%
C[C@@H]1CN([C@H](C)CO)S(=O)(=O)c2ccc(/C=C/c3ccccc3)cc2O[C@H]1CN(C)Cc1cccnc1 | inconclusive: 87.5%
O=C(C[C@@H]1CC[C@H]2[C@@H](COC[C@H](O)CN2S(=O)(=O)c2ccc(Cl)cc2)O1)NCc1ccc(Cl)c(Cl)c1 | inconclusive: -17.8%

Some of the entries so far, as comma-separated lines:
SMILES,"activity change, negative = inhibition"
C[C@H](CO)N1C[C@H](C)[C@H](CN(C)S(=O)(=O)c2ccc(C#N)cc2)Oc2ncc(C#Cc3ccc(C(F)(F)F)cc3)cc2C1=O,inconclusive: 56.2%
COc1ccc(CN(C)C[C@H]2OCCCC[C@@H](C)Oc3ccc(NC(=O)Nc4ccc(F)cc4)cc3C(=O)N([C@@H](C)CO)C[C@@H]2C)cc1,inconclusive: -44.8%
